No constants are given. Whether binding was seen depends on the method and setting. For some assays here: In cells and extracts the contact can be indirect. Some entries that bind do so weakly or less than the wild type. Where a sequence is shown, tags or fusion partners need not be part of it.
What was measured:
[1] = target: T1, CcmK2-His4 (Synechocystis sp. PCC6803 CcmK2, C-ter His4 tag) (Synechocystis sp. PCC6803) (UniProt P72761); assay: pull-down; four CcmK with His4, StrepTag, FLAG and HA tags co-expressed in E. coli BL21(DE3) (four-cassette plasmid, IPTG or auto-induction); TALON purification; Coomassie and western blots with streptactin-AP, anti-FLAG, anti-HA
T1 sequence: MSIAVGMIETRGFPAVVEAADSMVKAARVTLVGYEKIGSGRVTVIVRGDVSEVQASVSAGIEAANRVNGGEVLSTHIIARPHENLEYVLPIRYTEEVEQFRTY

The chains behind the UniProt entries cited, without tags or fusion partners.
UniProt P73407: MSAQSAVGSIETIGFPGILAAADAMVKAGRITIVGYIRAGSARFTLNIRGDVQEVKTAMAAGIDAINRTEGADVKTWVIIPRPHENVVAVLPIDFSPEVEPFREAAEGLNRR

[2] = target: T1, CcmK2-His4 (Synechocystis sp. PCC6803 CcmK2, C-ter His4 tag) (Synechocystis sp. PCC6803); assay: pull-down; couples of His4- and FLAG-tagged Syn6803 CcmK co-expressed in E. coli BL21(DE3) (two-cassette pET26b plasmid, IPTG); soluble fraction on cobalt TALON resin in 20 mM NaPi, 300 mM NaCl, 10 mM imidazole, pH 8.0, eluted with 300 mM imidazole; Coomassie SDS-PAGE and anti-FLAG western blot of purified fractions
[3] = target: T2, CcmK1-His4 (Synechocystis sp. PCC6803 CcmK1, C-ter His4 tag) (Synechocystis sp. PCC6803) (UniProt P72760); assay: as above
T2 sequence: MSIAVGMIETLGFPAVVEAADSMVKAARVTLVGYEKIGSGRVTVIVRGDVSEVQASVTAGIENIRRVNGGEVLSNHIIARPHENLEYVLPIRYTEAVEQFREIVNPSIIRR

[4] = target: T2, CcmK1-His4 (Synechocystis sp. PCC6803 CcmK1, C-ter His4 tag) (Synechocystis sp. PCC6803); assay: SEC; TALON-purified co-expressed samples; Beckman Ultraspherogel SEC2000, 20 mM Tris-HCl, 300 mM NaCl, pH 7, 1 mL/min; both purified
[5] = target: CcmK4-His4 (Synechocystis sp. PCC6803 CcmK4, C-ter His4 tag) (Synechocystis sp. PCC6803) (UniProt P73407); assay: pull-down; four CcmK with His4, StrepTag, FLAG and HA tags co-expressed in E. coli BL21(DE3) (four-cassette plasmid, IPTG or auto-induction); TALON purification; Coomassie and western blots with streptactin-AP, anti-FLAG, anti-HA
[6] = target: His4-CcmK4 (Synechocystis sp. PCC6803 CcmK4, N-ter His4 tag) (Synechocystis sp. PCC6803) (UniProt P73407); assay: as above
[7] = target: His4-CcmK4 (Synechocystis sp. PCC6803 CcmK4, N-ter His4 tag) (Synechocystis sp. PCC6803) (UniProt P73407); assay: pull-down; purified His4-K4/K3-FLAG (7 uM) incubated overnight at room temperature at pH 5, 7 or 9 (50 mM NaPi or NaAcetate, 100 mM NaCl, 100 mM ammonium sulfate), with or without 14% PEG 3350; then bound to TALON resin, anti-FLAG western blot; both purified
[8] = target: His4-CcmK4 (Synechocystis sp. PCC6803 CcmK4, N-ter His4 tag) (Synechocystis sp. PCC6803) (UniProt P73407); assay: pull-down; couples of His4- and FLAG-tagged Syn6803 CcmK co-expressed in E. coli BL21(DE3) (two-cassette pET26b plasmid, IPTG); soluble fraction on cobalt TALON resin in 20 mM NaPi, 300 mM NaCl, 10 mM imidazole, pH 8.0, eluted with 300 mM imidazole; Coomassie SDS-PAGE and anti-FLAG western blot of purified fractions
[9] = target: His4-CcmK4 (Synechocystis sp. PCC6803 CcmK4, N-ter His4 tag) (Synechocystis sp. PCC6803) (UniProt P73407); assay: pull-down; purified doubly tagged His4/FLAG homo- or hetero-hexamer (2 uM) in 50 mM NaPi pH 8.0, 100 mM NaCl, 0.15 mg/mL BSA, overnight at room temperature without or with untagged K1 or K4 (6 uM); then bound to TALON resin, anti-FLAG western blot; both purified
[10] = target: His4-CcmK4 (Synechocystis sp. PCC6803 CcmK4, N-ter His4 tag) (Synechocystis sp. PCC6803) (UniProt P73407); assay: SEC; TALON-purified co-expressed samples; Beckman Ultraspherogel SEC2000, 20 mM Tris-HCl, 300 mM NaCl, pH 7, 1 mL/min; both purified
[11] = target: T2, CcmK1-His4 (Synechocystis sp. PCC6803 CcmK1, C-ter His4 tag) (Synechocystis sp. PCC6803); assay: pull-down; four CcmK with His4, StrepTag, FLAG and HA tags co-expressed in E. coli BL21(DE3) (four-cassette plasmid, IPTG or auto-induction); TALON purification; Coomassie and western blots with streptactin-AP, anti-FLAG, anti-HA
[12] = target: T3, His6-CcmK4 (Synechococcus elongatus PCC7942 CcmK4, N-ter His6 tag) (Synechococcus elongatus PCC7942) (UniProt Q31RK2); assay: pull-down; Syn7942 CcmK3 and CcmK4 with His6 and FLAG tags co-expressed in E. coli (IPTG 200 uM or auto-induction); TALON purification; Coomassie SDS-PAGE and anti-FLAG western blot
T3 sequence: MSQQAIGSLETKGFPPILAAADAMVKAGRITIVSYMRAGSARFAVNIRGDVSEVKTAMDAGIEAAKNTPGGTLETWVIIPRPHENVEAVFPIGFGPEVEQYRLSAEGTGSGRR

[13] = target: T4, CcmK4-His6 (Synechococcus elongatus PCC7942 CcmK4, C-ter His6 tag) (Synechococcus elongatus PCC7942) (UniProt Q31RK2); assay: as above
T4 sequence: T3 sequence

[14] = target: T5, His6-tagged CcmK4 (Synechococcus elongatus PCC7942), control for homo-hexamers (Synechococcus elongatus PCC7942) (UniProt Q31RK2); assay: as above
T5 sequence: T3 sequence

B1: CcmK2-FLAG (Synechocystis sp. PCC6803 CcmK2, C-ter FLAG tag) (protein, UniProt P72761 1-103)
chain: T1 sequence
[1]
  binding: binds
[2]
  binding: binds
[3]
  binding: binds
[4]
  binding: binds

B2: CcmK3-FLAG (Synechocystis sp. PCC6803 CcmK3, C-ter FLAG tag) (protein, UniProt P73406 1-103)
chain: MPQAVGVIQTLGFPSVLAAADAMLKGGRVTLVYYDLAERGNFVVAIRGPVSEVNLSMKMGLAAVNESVMGGEIVSHYIVPNPPENVLAVLPVEYTEKVARFRT
[5]
  binding: binds
[6]
  binding: binds
[7]
  binding: binds
[8]
  binding: binds
[9]
  binding: binds
[10]
  binding: binds

B3: CcmK1-FLAG (Synechocystis sp. PCC6803 CcmK1, C-ter FLAG tag) (protein, UniProt P72760 1-111)
chain: T2 sequence
[2]
  binding: binds
[3]
  binding: binds

B4: FLAG-CcmK3 (Synechocystis sp. PCC6803 CcmK3, N-ter FLAG tag) (protein, UniProt P73406 1-103)
chain: B2 chain
[6]
  binding: binds
[8]
  binding: binds weakly

B5: CcmK2-StrepTag (Synechocystis sp. PCC6803 CcmK2, StrepTag) (protein, UniProt P72761 1-103)
chain: T1 sequence
[1]
  binding: binds
[11]
  binding: binds

B6: CcmK2-HA (Synechocystis sp. PCC6803 CcmK2, HA tag) (protein, UniProt P72761 1-103)
chain: T1 sequence
[1]
  binding: binds

B7: CcmK3-FLAG (Synechococcus elongatus PCC7942 CcmK3, C-ter FLAG tag) (protein, UniProt Q31RK3 1-102)
chain: MPIAVGTIQTLGFPPIIAAADAMVKAARVTITQYGLAESAQFFVSVRGPVSEVETAVEAGLKAVAETEGAELINYIVIPNPQENVETVMPIDFTAESEPFRS
[12]
  binding: binds
[13]
  binding: binds

B8: FLAG-tagged CcmK4 (Synechococcus elongatus PCC7942), control for homo-hexamers (protein, UniProt Q31RK2 1-113)
chain: T3 sequence
[14]
  binding: binds
